Tested on: cocaine
Test: AlbuBChE PK/PD analysis, sigmoidal inhibitory effect Emax model (cocaine AUC)
Conditions: cynomolgus monkeys
Description: AlbuBChE PK/PD relationship was defined using the computer software WinNonlin Professional (Version 4.0.1 Pharsight Corporation, USA). Specifically the direct sigmoidal inhibitory Effect Emax model was use in which maximum effect (Emax) as measured by cocaine AUC was assumed at AlbuBChE concentration of zero. The model equation can be described as follows: Inhibitory Effect Sigmoid Emax, C=0 at Emax, C=infinity at Eo E=Emax−(Emax−E0)*(C**Gamma/(C**Gamma+EC50**Gamma))
The PD parameter used in the analysis was cocaine AUC. PK parameters used in the model were AlbuBChE plasma concentrations at 2, 48, 96, 120, and 240 hr post-AlbuBChE dose. Due to the fact that AlbuBChE concentration was not measured at 2 hr post-AlbuBChE dose, the concentration at 3 hr postdose was used in the analysis with the assumptions that AlbuBChE concentration at 3 hr post AlbuBChE dose may reflect AlbuBChE conc. at 2 hr post AlbuBChE dose.

Substance: AlbuBChE
- Gamma (PK/PD model): 0.708
- E0 (PK/PD model) (cocaine AUC): 1096 ng·min/mL
- Emax (PK/PD model) (cocaine AUC at AlbuBChE concentration of zero): 12909 ng·min/mL

Source: US8541373B2, “BChE albumin fusions for the treatment of cocaine abuse” (priority 2009, dated 2013)
